Percent effect of library compounds

Amino acid sequences for entries named in this document (tags omitted).
UniProt I6X8D2, whole entry: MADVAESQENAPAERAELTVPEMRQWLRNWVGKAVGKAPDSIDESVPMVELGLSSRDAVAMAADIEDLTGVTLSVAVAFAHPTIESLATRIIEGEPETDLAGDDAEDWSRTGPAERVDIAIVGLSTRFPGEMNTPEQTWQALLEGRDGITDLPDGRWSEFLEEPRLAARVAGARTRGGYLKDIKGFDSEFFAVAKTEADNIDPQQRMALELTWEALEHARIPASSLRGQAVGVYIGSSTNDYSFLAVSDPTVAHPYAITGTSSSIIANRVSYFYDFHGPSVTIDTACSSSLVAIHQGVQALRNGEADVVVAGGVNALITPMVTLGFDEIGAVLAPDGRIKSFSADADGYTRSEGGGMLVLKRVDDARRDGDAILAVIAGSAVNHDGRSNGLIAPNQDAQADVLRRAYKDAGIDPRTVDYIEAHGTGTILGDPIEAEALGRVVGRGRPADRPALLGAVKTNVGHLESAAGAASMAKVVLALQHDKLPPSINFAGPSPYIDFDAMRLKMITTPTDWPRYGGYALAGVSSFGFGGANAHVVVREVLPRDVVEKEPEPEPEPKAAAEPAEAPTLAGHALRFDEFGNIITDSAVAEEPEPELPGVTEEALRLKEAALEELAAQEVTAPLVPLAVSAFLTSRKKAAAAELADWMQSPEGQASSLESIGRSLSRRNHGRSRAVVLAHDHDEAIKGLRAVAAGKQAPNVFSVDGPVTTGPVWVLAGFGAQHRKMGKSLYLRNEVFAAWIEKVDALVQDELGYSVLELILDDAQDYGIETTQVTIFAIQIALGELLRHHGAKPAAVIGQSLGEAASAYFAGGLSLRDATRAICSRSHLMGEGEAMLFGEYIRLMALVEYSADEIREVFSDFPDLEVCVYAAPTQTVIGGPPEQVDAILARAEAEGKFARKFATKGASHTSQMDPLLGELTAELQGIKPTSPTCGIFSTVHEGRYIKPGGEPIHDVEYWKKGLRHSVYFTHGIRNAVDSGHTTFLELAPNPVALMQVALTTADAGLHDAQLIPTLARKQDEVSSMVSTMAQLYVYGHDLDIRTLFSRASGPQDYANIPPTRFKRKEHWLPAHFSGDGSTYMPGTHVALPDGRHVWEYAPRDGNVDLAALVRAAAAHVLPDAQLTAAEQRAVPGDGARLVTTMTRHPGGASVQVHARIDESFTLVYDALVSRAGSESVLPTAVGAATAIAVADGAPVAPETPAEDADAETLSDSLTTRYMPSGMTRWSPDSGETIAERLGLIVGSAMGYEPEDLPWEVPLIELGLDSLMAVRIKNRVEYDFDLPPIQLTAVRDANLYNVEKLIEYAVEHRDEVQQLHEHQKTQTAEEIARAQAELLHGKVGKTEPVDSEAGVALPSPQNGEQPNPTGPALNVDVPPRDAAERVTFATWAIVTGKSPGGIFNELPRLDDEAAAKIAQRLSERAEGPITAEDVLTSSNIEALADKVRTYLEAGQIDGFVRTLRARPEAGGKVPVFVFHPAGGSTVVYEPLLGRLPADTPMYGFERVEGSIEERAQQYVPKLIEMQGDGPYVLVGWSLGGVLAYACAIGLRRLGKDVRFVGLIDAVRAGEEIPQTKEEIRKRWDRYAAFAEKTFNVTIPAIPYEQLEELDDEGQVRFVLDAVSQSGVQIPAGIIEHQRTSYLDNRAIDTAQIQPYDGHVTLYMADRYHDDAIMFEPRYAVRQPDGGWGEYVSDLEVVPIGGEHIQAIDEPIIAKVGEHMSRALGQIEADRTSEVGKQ

The values are deposited in ChEMBL (CHEMBL3988442, “University of Dundee, Small-Polar-MMV Screening Library” (2021)).

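Enzyme assay of the thioesterase domain of polyketide synthase 13; the read-out is not stated. Target: Polyketide synthase Pks13, Mycobacterium tuberculosis (UniProt I6X8D2). Compounds at 30 µM. The record gives no direction; the compounds picked for IC50 retests had high values, so higher reads as stronger inhibition. Size under these conditions: about 67,000 compounds, about 300 of them at 50% or above in at least one test.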

Values are the deposited “Percent Effect”, in %. The controls that fix the scale are not given in the record; negative values are as filed. Compounds were drawn at random from those tested, without regard to their results.

SMILES	Percent Effect
O=C(Nc1cnn(Cc2ccc(F)cc2Cl)c1)C1CC1	-5.733%
CS(=O)(=O)N1CCO[C@@H]2CN(C(=O)C3CC(F)(F)C3)C[C@@H]2C1	-14.33%
Cc1cccc(CN2CCOCC2c2[nH]ncc2C)n1 (configuration not stated)	-5.561%
CCCc1nnc(C(=O)N(C)Cc2ccc(OC)cc2)o1	-4.026%
Cc1nn(CC(=O)N(C)Cc2nncn2C(C)C)c(=O)c2ccccc12	-30.83%
Cc1ccsc1CNC(=O)N1CCC(Cc2cnn(C)c2)C1 (configuration not stated)	-9.171%
Cc1cc(N2CCC(NCCOc3ccccc3)CC2)nc(C)n1	-25.47%
O=C1CC(N(C(=O)COc2ccc(F)cc2F)C2CC2)C(=O)N1 (configuration not stated)	-3.756%
CCCC(C)C(=O)NCc1cn2cc(Br)ccc2n1 (configuration not stated)	-31.88%
CCc1cnc(N2CCCC(CCC(N)=O)C2)nc1 (configuration not stated)	6.562%
CC(=O)N1CCC(C(=O)NCCN2CCC(C)CC2)CC1	-3.929%
CC(C)C(NC(=O)c1ccc(=O)[nH]c1)c1nnc2n1CCNCC2 (configuration not stated)	-25.84%
Cc1nnc(NCC(c2cccs2)N2CCCC2)c(C#N)c1C (configuration not stated)	-22.96%
CCc1cccc(CC)c1NC(=O)c1ccccc1N(C)S(C)(=O)=O	-0.8646%
COCC(=O)N(CCC(=O)OC)CC1CCCO1 (configuration not stated)	10.87%
CN(C)c1cc(C(F)(F)F)cc(-c2ccc(C(=O)O)cc2)n1	3.73%
Cc1nc(CN2CCO[C@@H]3CN(C(=O)CC4CC4)CC[C@@H]3C2)cs1	-10.55%
CCC(C)Sc1ncc(-c2c(C#N)c(N)nc3c2COCC3)cn1 (configuration not stated)	-7.465%
CC(C)(CNc1cn[nH]c(=O)c1Cl)c1ccc2c(c1)OCCO2	-40.07%
CC(C)[C@H]1CN(S(=O)(=O)c2cccnc2)C[C@@H]1N	-12.63%
O=C(CN1CC(c2nc(-c3cccs3)no2)C1)NCC1CCCO1 (configuration not stated)	-22.94%
CN(Cc1cccnc1)[C@@H]1CN(c2ccccn2)[C@@H]2CCCO[C@H]12	-7.101%
O=C(c1ccsc1)N1CCO[C@@H]2CN(Cc3nccs3)C[C@@H]2C1	-8.511%
CN(CC1(CO)CCC1)C(=O)c1cc(COc2ccccc2F)[nH]n1	-5.91%
O=C(CSc1ccncc1)NC1CC(=O)N(CCc2ccccc2)C1 (configuration not stated)	-5.656%
CC(OCC(F)(F)F)C(=O)N1CCN(S(C)(=O)=O)CC1 (configuration not stated)	-3.644%
Fc1ccc(CN2C[C@@H]3OCCN(CC4CCCO4)[C@@H]3C2)cc1 (some centres not stated)	-11.68%
Cc1nc(C2CCN(C(=O)c3ccn(C)n3)CC2)c2sccn12	7.292%
CC(=O)NC(C(=O)N(C)Cc1nnc2n1CCC2)C(C)C (configuration not stated)	-2.273%
Cc1cc(CN2CCC(N(C)Cc3nnc(C4CC4)n3C)C2)on1 (configuration not stated)	0.09716%
CCc1csc(C2CCCN(C(=O)C3=NN(CC)C(=O)CC3)C2)n1 (configuration not stated)	-26.56%
CN(C)c1nc(CNC(=O)Nc2cccc([S+](C)[O-])c2)cs1 (configuration not stated)	-2.262%
CCc1ccc(CN2CCC3(CCCN(C(=O)c4cnccn4)C3)C2)o1 (configuration not stated)	-10.11%
O=C(Nc1cccnc1-n1cc(Br)cn1)C1CCCC1	-18.04%
Cc1c[nH]c(CN(C)C(=O)C(C)(C)NC(=O)c2cccs2)n1	-10.92%
CCC1COCCN1C(=O)CNC(=O)c1ccsc1 (configuration not stated)	-30.89%
C=Cc1ccc(C(=O)N2CCCC(Nc3ccc(F)c(F)c3)C2)cc1 (configuration not stated)	-4.594%
COc1ccc(C(NCc2ccc(C#N)cc2)C2CC2)cc1 (configuration not stated)	-28.89%
COc1ccc(C(C(=O)O)N(C)CCN2CCCC2)c(C)c1 (configuration not stated)	-28.24%
O=C1CO[C@H]2CN(Cc3ccc(C(F)(F)F)cc3)C[C@H]2N1	-29.95%
CC(C)CN1CCCC1c1ccc(C(=O)Nc2cccnc2)s1 (configuration not stated)	-28.54%
Cc1ccc(CN2CCc3onc(C(=O)NC(C)C)c3C2)o1	-3.432%
COc1cccc(N2CCN(Cc3cc(C)cc(F)c3)CC2=O)c1	-7.597%
CC(=O)Nc1ncc(S(=O)(=O)N2CCOCC2)s1	-7.058%
COc1ccc(CCC(=O)N2CCNCC2C(=O)N2CCOCC2)cc1 (configuration not stated)	-16.12%
CC(NC(=O)N(C)Cc1ccc(Cl)s1)c1ccccn1 (configuration not stated)	-9.59%
COCCN1CCN(S(C)(=O)=O)Cc2cccnc21	-3.018%
Cc1cc(C)n2nc(C(=O)N[C@H]3C[C@H]4CN(C)CCN4C3)cc2n1	21.27%
Oc1ccccc1CN1C[C@H](O)C[C@H]1c1nc(Cc2ccccc2)no1	-28.61%

The last 5 entries again:

| SMILES | Percent Effect |
|---|---|
| `COc1ccc(CCC(=O)N2CCNCC2C(=O)N2CCOCC2)cc1` (configuration not stated) | -16.12% |
| `CC(NC(=O)N(C)Cc1ccc(Cl)s1)c1ccccn1` (configuration not stated) | -9.59% |
| `COCCN1CCN(S(C)(=O)=O)Cc2cccnc21` | -3.018% |
| `Cc1cc(C)n2nc(C(=O)N[C@H]3C[C@H]4CN(C)CCN4C3)cc2n1` | 21.27% |
| `Oc1ccccc1CN1C[C@H](O)C[C@H]1c1nc(Cc2ccccc2)no1` | -28.61% |